In PubChem BioAssay AID504834 (National Center for Advancing Translational Sciences (NCATS), 2011):
Hit rate of the full screen: of about 320,000 compounds, about 22,000 (6.9%) were called active. This list was built around the results that the source calls inconclusive (neither active nor inactive); the mix of calls is not that of the screen. Calls follow the shape of the dose curve; as a rule, active = well fitted inhibition curve with a large enough effect; inconclusive = small, poorly fitted or top-dose-only effect, or another doubt; inactive = no such curve, though single readings can be large or run the other way. Potencies of inconclusive entries are doubtful fits and often do not repeat.
% is scaled to controls: 0 for no effect and ±100 for the full control effect; potency is read from the fitted curve at half-maximal effect.

Test: Primary qHTS for delayed death inhibitors of the malarial parasite plastid, 96 hour incubation
Details: P. falciparum luciferase reporter growth; series mostly up to 28.7 µM; activity change, negative = inhibition: at the top concentration
In short: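 Compounds incubated with erythrocytes infected by luciferase-expressing P. falciparum (2% hematocrit, 0.05% parasitemia final) for 96 hours, 37 C in 5% CO2. Growth inhibition scored as decreased luciferase luminescence.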
In the case of `O=C1N(c2ccc(Cl)cc2)C(c2ccccc2)N2CCCN12` (stereo not drawn), the “activity change, negative = inhibition” value is reported as inactive: 28.6%.
With `O=C(CN1CCN(c2ncccn2)CC1)NCc1ccc2c(c1)OCO2` the Potency was inconclusive: 18.5 µM [inhibitor, single point].
In the case of `C=CCC(C=C)[N+]1(CC(=O)OC)CCCCC1` (stereo not drawn), the Potency is reported as inconclusive: 4.15 µM [inhibitor, single point].
For `CCCC[C@@H]1C[C@H]1[C@@H](NC(=O)c1ccco1)c1ccc(Cl)cc1`, the Potency was inconclusive: 10.4 µM [inhibitor, single point].
For `COc1ccc(-n2c(C)cc(-c3cn4cccc(C)c4n3)c2C)cc1`, the Potency was inconclusive: 8.28 µM [inhibitor, partial curve].
In the case of `CCOC(=O)C1CCN(C(=O)CNC(=O)c2nn(-c3ccc(OC)c(OC)c3)c(=O)c3ccccc23)CC1`, the “activity change, negative = inhibition” value is reported as inactive: -13.6%.
For `Cc1ccccc1NC(=O)CCNS(=O)(=O)c1cccc2nsnc12`, the “activity change, negative = inhibition” value was inactive: 15.1%.
For `C/C(=N\O)C(=O)NCCN(C)C`, the Potency was inconclusive: 10.4 µM [inhibitor, single point].
For `CCCCCC(=O)NNC(=O)Nc1ccccc1`, the Potency was inconclusive: 20.8 µM [inhibitor, single point].
For `Cc1ccc(CN2[C@@H](c3ccccc3)COCCS2(=O)=O)cc1`, the “activity change, negative = inhibition” value was inactive: -90.8%.
In the case of `Cc1cc(NC(=O)CSc2nnc(-c3ccccc3)n2Cc2ccco2)no1`, the Potency is reported as inconclusive: 3.29 µM [inhibitor, partial curve, poor fit].
For `COc1cccc(NC(=O)C(=O)NCCCn2ccnc2)c1`, the Potency was inconclusive: 10.4 µM [inhibitor, single point].
In the case of `COc1cccc(CN(C)C(=O)c2cccc(OCc3ccccc3)c2)c1`, the “activity change, negative = inhibition” value is reported as inactive: 33.1%.
In the case of `C1=C[C@@H]2CCN(Cc3ccccc3)Cc3cccc(c32)C1`, the Potency is reported as active: 7.38 µM.
For `CN(CCOc1cccc2ccccc12)Cc1ccccc1`, the Potency was active: 4.15 µM.
With `C#CCn1c(=NC(=O)c2ccc(Br)s2)sc2cccc(OC)c21` the Potency was inconclusive: 18.5 µM [inhibitor, single point].
With `O=C(N/N=C/C(Cl)=C/c1ccccc1)c1ccncc1` the Potency was inconclusive: 18.5 µM [inhibitor, single point].
For `COc1ccc2c(c1)C(=O)N(Cc1ccccc1)C(=O)C2(C)C`, the Potency was inconclusive: 18.5 µM [inhibitor, single point].
For `CCOC(=O)c1ccc(NC(=O)CSc2nncn2-c2cccnc2)cc1`, the Potency was inconclusive: 2.33 µM [inhibitor, partial curve, poor fit].
For `O=C(NC(=S)N1CCN(CCO)CC1)C12CC3CC(CC(C3)C1)C2`, the “activity change, negative = inhibition” value was inactive: 36.5%.
In the case of `Cc1cc(C)c2nc3nc(C)c(C)cc3c(N)c2c1`, the Potency is reported as inconclusive: 11.7 µM [inhibitor, single point].
In the case of `CCCCNC(=O)[C@H]1N2C(=O)c3c(ccc(OC)c3OC)C2SC1(C)C` (stereo partly drawn), the Potency is reported as inconclusive: 13.1 µM [inhibitor, single point].
With `Cc1cccc(C(=O)NCC(=O)NCCCSc2ccccc2)c1` the “activity change, negative = inhibition” value was inactive: 10.8%.
For `CN(C)c1cc[n+](CC(=O)Nc2cccc([N+](=O)[O-])c2)cc1`, the Potency was inconclusive: 4.65 µM [inhibitor, partial curve, poor fit].
For `COc1cc(C(=O)Nc2cccc(S(=O)(=O)N3CCCC3)c2)cc(OC)c1C`, the Potency was inconclusive: 18.5 µM [inhibitor, partial curve, poor fit].
For `Cc1ccc(NC(=O)C2CCN(S(=O)(=O)c3ccc4[nH]c(=O)ccc4c3)CC2)c(C)c1`, the Potency was inconclusive: 18.5 µM [inhibitor, single point].
With `CNC[C@H](CC1CCCCC1)NC[C@H](CO)NCC1(c2ccccc2)CC1` the Potency was inconclusive: 1.47 µM [inhibitor, full curve].
In the case of `COc1ccccc1CC(=O)NC1CCN(Cc2ccccc2)CC1`, the “activity change, negative = inhibition” value is reported as inactive: 3.9%.
In the case of `CC(C)OC(=O)Nc1ccc(Oc2c(F)c(F)c(F)c(F)c2F)cc1`, the Potency is reported as inconclusive: 18.5 µM [inhibitor, single point].
For `COc1ccc(N2CCN(S(=O)(=O)c3ccc(C(=O)NC4CCCC4)cc3)CC2)cc1`, the Potency was inconclusive: 10.4 µM [inhibitor, single point].
With `COc1ccc(OC)c(/C=C2\Oc3cc(OCC(=O)N4CCC(C(=O)O)CC4)ccc3C2=O)c1` the “activity change, negative = inhibition” value was inactive: -12.1%.
For `Cc1ccc(NC(=O)CCNC(=O)c2ccc([N+](=O)[O-])cc2)cc1S(=O)(=O)N1CCOCC1`, the Potency was inconclusive: 0.828 µM [inhibitor, full curve, poor fit].
With `COc1cccc(C(C(=O)NCc2ccccc2)N(C(=O)c2csnn2)C2CC2)c1` (stereo not drawn) the “activity change, negative = inhibition” value was inactive: -0.688%.
In the case of `COc1ccc(CCN2CCCC(CN(C)Cc3cc(OC)ccc3OC)C2)cc1` (stereo not drawn), the Potency is reported as active: 14.7 µM.
In the case of `CCOC(=O)CNc1nc(C(C)(C)C)nc2c1nnn2Cc1ccccc1`, the Potency is reported as inconclusive: 18.5 µM [inhibitor, single point].
In the case of `Clc1cccc(N/N=C/c2ccncc2)c1`, the “activity change, negative = inhibition” value is reported as inactive: -20.4%.
In the case of `CCCCNC(=O)Nc1ncn[nH]1`, the “activity change, negative = inhibition” value is reported as inactive: 23.5%.
With `COc1ccc(C(C)=O)cc1CC(=O)Nc1ccccc1-c1ccccc1` the Potency was inconclusive: 16.5 µM [inhibitor, single point].
For `Cc1cc2c(=O)n(C)c(SCC(=O)NC3CCCC3)nc2s1`, the “activity change, negative = inhibition” value was inactive: 12.8%.
In the case of `CCCCN(C(=O)CC1CCCC1)c1c(N)n(CCCC)c(=O)[nH]c1=O`, the “activity change, negative = inhibition” value is reported as inactive: -5.41%.
In the case of `COc1ccc(C(=O)NC2c3ccccc3-c3ccccc32)cc1`, the Potency is reported as inconclusive: 8.28 µM [inhibitor, single point].
With `CCCOc1ccc(Cc2c(COCC)[nH]c(=S)[nH]c2=O)cc1` the “activity change, negative = inhibition” value was inactive: 5.59%.
For `COc1ccccc1OC(=O)CN1C(=O)c2ccccc2C1=O`, the “activity change, negative = inhibition” value was inactive: 9.89%.
With `CC1(C)Cn2c(nc(=O)c3c2NCN(CCc2ccccc2)C3)S1` the Potency was inconclusive: 18.5 µM [inhibitor, single point].
In the case of `O=C1C2CCCN2C(=O)N1CCCCN1CCN(CCO)CC1` (stereo not drawn), the “activity change, negative = inhibition” value is reported as inactive: 14.2%.
For `COc1ccc(OC)c(CNc2ccc3c(c2)nc(C)n3C)c1`, the Potency was inconclusive: 13.1 µM [inhibitor, single point].
With `O/N=C\c1ccccc1Oc1ccc(F)cc1` the “activity change, negative = inhibition” value was inactive: 0%.
For `COc1cccc(CNC(=O)CCn2ccc3cc(S(=O)(=O)N4CCC(C)CC4)ccc32)c1`, the Potency was inconclusive: 9.28 µM [inhibitor, partial curve].
